Results reported in paper PMC10789646.

Chains of the proteins cited; added tags and fusions are not shown. Residues count along the entry.
UniProt P33316, residues 70-252: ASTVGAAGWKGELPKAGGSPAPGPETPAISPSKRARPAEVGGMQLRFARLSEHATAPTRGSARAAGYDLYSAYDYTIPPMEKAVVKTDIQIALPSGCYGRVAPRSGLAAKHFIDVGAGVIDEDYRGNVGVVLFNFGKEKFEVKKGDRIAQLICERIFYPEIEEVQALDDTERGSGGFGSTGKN
UniProt O75821: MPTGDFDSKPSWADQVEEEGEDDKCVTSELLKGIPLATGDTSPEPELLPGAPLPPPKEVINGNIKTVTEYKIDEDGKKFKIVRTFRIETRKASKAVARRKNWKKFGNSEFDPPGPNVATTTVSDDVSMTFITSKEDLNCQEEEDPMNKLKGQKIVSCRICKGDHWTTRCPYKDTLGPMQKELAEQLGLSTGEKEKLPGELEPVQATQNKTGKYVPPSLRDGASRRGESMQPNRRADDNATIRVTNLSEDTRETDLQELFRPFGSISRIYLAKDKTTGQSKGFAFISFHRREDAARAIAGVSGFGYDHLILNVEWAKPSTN
UniProt Q52LJ0: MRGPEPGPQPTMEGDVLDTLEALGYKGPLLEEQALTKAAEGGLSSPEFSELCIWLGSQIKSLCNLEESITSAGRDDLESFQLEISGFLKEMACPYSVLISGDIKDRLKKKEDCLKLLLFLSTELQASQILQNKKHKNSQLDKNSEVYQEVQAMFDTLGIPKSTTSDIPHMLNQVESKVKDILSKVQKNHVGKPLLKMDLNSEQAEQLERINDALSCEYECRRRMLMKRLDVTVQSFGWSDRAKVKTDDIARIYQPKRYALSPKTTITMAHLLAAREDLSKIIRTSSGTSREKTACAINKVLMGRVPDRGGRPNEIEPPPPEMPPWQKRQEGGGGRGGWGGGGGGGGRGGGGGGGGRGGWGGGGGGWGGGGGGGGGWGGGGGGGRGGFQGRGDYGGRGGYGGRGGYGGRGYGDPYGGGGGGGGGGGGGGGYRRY
UniProt O14929: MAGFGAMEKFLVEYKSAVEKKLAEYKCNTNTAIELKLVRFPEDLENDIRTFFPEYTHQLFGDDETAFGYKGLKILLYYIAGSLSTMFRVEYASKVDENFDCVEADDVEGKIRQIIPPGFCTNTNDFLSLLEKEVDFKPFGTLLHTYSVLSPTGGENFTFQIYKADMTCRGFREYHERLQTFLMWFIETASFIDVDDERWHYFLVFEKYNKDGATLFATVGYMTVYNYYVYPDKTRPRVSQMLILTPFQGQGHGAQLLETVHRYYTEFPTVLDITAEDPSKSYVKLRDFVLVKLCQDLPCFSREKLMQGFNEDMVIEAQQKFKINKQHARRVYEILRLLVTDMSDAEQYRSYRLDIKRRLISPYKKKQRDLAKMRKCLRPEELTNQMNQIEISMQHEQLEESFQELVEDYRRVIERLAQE
UniProt P27816: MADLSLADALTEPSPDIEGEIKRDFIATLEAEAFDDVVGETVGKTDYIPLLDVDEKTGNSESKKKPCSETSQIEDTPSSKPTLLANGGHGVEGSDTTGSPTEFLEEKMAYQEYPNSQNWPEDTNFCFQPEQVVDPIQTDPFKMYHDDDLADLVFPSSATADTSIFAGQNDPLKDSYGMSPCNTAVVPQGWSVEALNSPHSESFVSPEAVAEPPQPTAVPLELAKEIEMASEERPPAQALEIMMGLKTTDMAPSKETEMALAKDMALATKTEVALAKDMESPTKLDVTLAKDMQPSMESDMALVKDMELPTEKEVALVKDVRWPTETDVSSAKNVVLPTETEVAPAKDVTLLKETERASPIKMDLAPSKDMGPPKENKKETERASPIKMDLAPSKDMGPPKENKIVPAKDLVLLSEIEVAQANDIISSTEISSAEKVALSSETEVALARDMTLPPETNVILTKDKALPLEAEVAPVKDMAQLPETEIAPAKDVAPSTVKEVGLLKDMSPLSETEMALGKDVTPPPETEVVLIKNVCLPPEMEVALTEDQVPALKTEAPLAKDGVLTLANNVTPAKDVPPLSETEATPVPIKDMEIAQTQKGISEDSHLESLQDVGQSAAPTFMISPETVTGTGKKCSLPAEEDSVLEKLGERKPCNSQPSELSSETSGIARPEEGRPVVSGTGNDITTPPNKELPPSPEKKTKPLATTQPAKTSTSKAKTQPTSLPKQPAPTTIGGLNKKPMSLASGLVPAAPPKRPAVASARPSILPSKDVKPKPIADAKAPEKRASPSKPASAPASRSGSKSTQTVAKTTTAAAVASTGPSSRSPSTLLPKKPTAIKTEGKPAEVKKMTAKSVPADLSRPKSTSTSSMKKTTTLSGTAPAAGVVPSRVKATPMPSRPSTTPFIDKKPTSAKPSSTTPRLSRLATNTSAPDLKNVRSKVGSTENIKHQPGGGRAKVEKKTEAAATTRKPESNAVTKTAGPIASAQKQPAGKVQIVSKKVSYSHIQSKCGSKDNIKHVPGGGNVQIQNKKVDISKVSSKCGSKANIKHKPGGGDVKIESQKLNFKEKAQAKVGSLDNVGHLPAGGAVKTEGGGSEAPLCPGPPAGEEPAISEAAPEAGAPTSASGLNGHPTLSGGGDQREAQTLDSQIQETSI
UniProt P60660: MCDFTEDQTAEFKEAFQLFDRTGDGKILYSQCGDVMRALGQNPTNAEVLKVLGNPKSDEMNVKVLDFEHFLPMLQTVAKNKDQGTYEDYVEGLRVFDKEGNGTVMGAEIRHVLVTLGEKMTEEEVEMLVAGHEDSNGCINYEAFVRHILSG
UniProt Q15370: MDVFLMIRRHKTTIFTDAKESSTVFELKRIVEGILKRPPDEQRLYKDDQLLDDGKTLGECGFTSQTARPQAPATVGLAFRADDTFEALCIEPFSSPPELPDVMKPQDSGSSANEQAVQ
UniProt O14545: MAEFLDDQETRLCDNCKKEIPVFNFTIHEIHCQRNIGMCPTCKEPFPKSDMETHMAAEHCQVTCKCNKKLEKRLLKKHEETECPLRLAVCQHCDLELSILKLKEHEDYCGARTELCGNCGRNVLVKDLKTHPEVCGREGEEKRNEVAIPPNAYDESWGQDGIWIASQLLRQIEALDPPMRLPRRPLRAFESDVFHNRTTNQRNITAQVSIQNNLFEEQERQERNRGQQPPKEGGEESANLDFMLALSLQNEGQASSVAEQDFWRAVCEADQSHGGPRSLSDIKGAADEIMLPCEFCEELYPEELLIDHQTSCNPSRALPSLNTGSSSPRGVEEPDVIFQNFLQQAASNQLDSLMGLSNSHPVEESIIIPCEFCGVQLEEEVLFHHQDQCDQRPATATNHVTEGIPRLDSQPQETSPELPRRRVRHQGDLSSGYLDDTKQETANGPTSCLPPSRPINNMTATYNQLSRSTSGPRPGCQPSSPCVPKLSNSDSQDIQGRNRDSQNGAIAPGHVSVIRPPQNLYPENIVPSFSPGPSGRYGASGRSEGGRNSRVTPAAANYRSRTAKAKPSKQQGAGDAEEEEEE

Molecular target: T1, BRPF1 bromodomain N651AzF (UniProt P55201)
T1 sequence (chain, 4-azido-L-phenylalanine (AzF) at 651): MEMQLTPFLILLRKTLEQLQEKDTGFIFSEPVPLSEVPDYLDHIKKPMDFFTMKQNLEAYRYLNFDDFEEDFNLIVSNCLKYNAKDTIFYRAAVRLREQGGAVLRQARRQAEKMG
Test: cross-linking + affinity purification with mass spectrometry; ~1 mg lysate of trichostatin A treated HEK293T cells with 50 μM BRPF1-N651AzF; 365 nm UV; Ni-NTA pull-down, washes with 400 mM KCl and Triton X-100; in-solution trypsin digestion, LC-MS/MS; +UV against -UV; only the target purified

binding, binds:
DUT (from UniProt P33316 70-252)
EIF3G (from UniProt O75821 1-320)
FAM98B (from UniProt Q52LJ0 1-433)
HAT1 (from UniProt O14929 1-419) (enzyme)
MAP4 (from UniProt P27816 1-1152)
MYL6 (from UniProt P60660 1-151)
TCEB2 (from UniProt Q15370 1-118)
TRAFD1 (from UniProt O14545 1-582)
TXLN4 (human (endogenous in HEK293T))

No constants are given. Whether binding was seen depends on the method and setting. Binding seen in cells or lysates may run through a third protein. A yes stands for co-enrichment or nearness to the bait. Other partners may have been found.
